Values from PubChem BioAssay AID1224830 (NIAID, 2016)
Assay: 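Regulators of TLR4 signalling towards TNF-alpha in macrophage-like cells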 (primary screen). Cell system: human THP-1 monocytic leukaemia cells, TNF dual-luciferase reporter clone, PMA-differentiated to macrophage-like cells. Reagents: siRNA pool against human genes, 50 nM. Time to read-out: LPS for 4 h, given about 3 days after siRNA transfection. Conditions: bacterial LPS (TLR4 ligand), 10 ng/ml. Measurement: 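TNF firefly reporter luminescence divided by renilla, normalised to the plate median, then turned into a robust z-score for each replicate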. Reading the numbers: TNF reporter robust z-score: higher = stronger TNF reporter response to LPS. Call rule: 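a well is active when its z-score exceeds 2.8 or falls below -1.5; control wells carry no call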.
Here is one part, drawn at random, of about 18,000 reagents tested. About 2,900 of them (16%) count as active. 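Calls are made per well; low scores hint the gene aids the LPS response, high scores that it dampens it.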 Repeated entries: four replicate wells of each siRNA pool.

SLC9A3 — TNF reporter robust z-score: 0.2; Call: inactive
SLC9A3 — TNF reporter robust z-score: 0.64; Call: inactive
SLC9A3 — TNF reporter robust z-score: -0.49; Call: inactive
SLC9A3 — TNF reporter robust z-score: 0.48; Call: inactive
NEIL1 — TNF reporter robust z-score: 0.26; Call: inactive
NEIL1 — TNF reporter robust z-score: 1.24; Call: inactive
NEIL1 — TNF reporter robust z-score: 1.08; Call: inactive
NEIL1 — TNF reporter robust z-score: 0.99; Call: inactive
DND1 — TNF reporter robust z-score: 4.91; Call: active
DND1 — TNF reporter robust z-score: 3.23; Call: active
DND1 — TNF reporter robust z-score: 2.91; Call: active
DND1 — TNF reporter robust z-score: 5.22; Call: active
AAMDC — TNF reporter robust z-score: 2.41; Call: inactive
AAMDC — TNF reporter robust z-score: 5.88; Call: active
AAMDC — TNF reporter robust z-score: 3.13; Call: active
AAMDC — TNF reporter robust z-score: 2.62; Call: inactive
ARHGAP12 — TNF reporter robust z-score: 0.45; Call: inactive
ARHGAP12 — TNF reporter robust z-score: -0.62; Call: inactive
ARHGAP12 — TNF reporter robust z-score: 0.11; Call: inactive
KAT6A — TNF reporter robust z-score: 0.62; Call: inactive
KAT6A — TNF reporter robust z-score: 1.12; Call: inactive
KAT6A — TNF reporter robust z-score: 2.35; Call: inactive
KAT6A — TNF reporter robust z-score: 1.4; Call: inactive
KPNA6 — TNF reporter robust z-score: 0.1; Call: inactive
KPNA6 — TNF reporter robust z-score: 0.07; Call: inactive
KPNA6 — TNF reporter robust z-score: 0.36; Call: inactive
KPNA6 — TNF reporter robust z-score: -0.27; Call: inactive
PSMB7 — TNF reporter robust z-score: -0.38; Call: inactive
PSMB7 — TNF reporter robust z-score: 0.73; Call: inactive
PSMB7 — TNF reporter robust z-score: -0.22; Call: inactive
PSMB7 — TNF reporter robust z-score: 1.03; Call: inactive
WDR19 — TNF reporter robust z-score: -0.63; Call: inactive
WDR19 — TNF reporter robust z-score: 0.36; Call: inactive
WDR19 — TNF reporter robust z-score: 0.41; Call: inactive
WDR19 — TNF reporter robust z-score: 0.55; Call: inactive
PRODH — TNF reporter robust z-score: 0.13; Call: inactive
PRODH — TNF reporter robust z-score: 1.1; Call: inactive
PRODH — TNF reporter robust z-score: 0; Call: inactive
PRODH — TNF reporter robust z-score: 0.12; Call: inactive
PPARGC1A — TNF reporter robust z-score: -1.26; Call: inactive
PPARGC1A — TNF reporter robust z-score: -0.93; Call: inactive
PPARGC1A — TNF reporter robust z-score: -0.82; Call: inactive
ABHD18 — TNF reporter robust z-score: -1.57; Call: active
ABHD18 — TNF reporter robust z-score: -0.6; Call: inactive
ABHD18 — TNF reporter robust z-score: -1.39; Call: inactive
ABHD18 — TNF reporter robust z-score: -0.26; Call: inactive
SLC4A5 — TNF reporter robust z-score: 0.48; Call: inactive
SLC4A5 — TNF reporter robust z-score: -0.41; Call: inactive
SLC4A5 — TNF reporter robust z-score: 0.98; Call: inactive
SLC4A5 — TNF reporter robust z-score: 0.02; Call: inactive

Records listed above with an active call, once more:
DND1 — TNF reporter robust z-score: 4.91; Call: active
DND1 — TNF reporter robust z-score: 3.23; Call: active
DND1 — TNF reporter robust z-score: 2.91; Call: active
DND1 — TNF reporter robust z-score: 5.22; Call: active
AAMDC — TNF reporter robust z-score: 5.88; Call: active
AAMDC — TNF reporter robust z-score: 3.13; Call: active
ABHD18 — TNF reporter robust z-score: -1.57; Call: active
